Laboratory results: PubChem BioAssay AID493246 (Drosophila RNAi Screening Center, 2011)
Purpose: 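Genes fly cells need to grow and stay alive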 (primary screen). System: Drosophila Kc and S2R+ cells. Reagents: long dsRNA against Drosophila genes. Measured: 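Raw, unnormalised count of remaining cells in each well; per-plate z-scores of cell number underlie the calls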. Reading the numbers: Kc cell number and S2R+ cell number: higher = more cells remaining. Rule for the call: 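Counted as a hit if cell number falls by a z-score of at least 3 within its plate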.
In all, the deposit lists about 21,000 reagents; shown is a random part of those with a known target gene and a result. Over the whole deposit, 429 (2%) got an active call. 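Values are raw and not normalised between plates; calls rest on per-plate z-scores that were not deposited.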 Not stated in the record: the amount of reagent, the time to read-out.

{"target gene": "Obp22a (Odorant-binding protein 22a)", "amplicon": "DRSC00088", "Kc cell number, rep 1": 1.55e6, "Kc cell number, rep 2": 1.58e6, "S2R+ cell number, rep 1": 1.16e6, "S2R+ cell number, rep 2": 1.30e6, "outcome": "inactive"}
{"target gene": "CG31534 (retired record)", "amplicon": "DRSC12141", "Kc cell number, rep 1": 1.47e6, "Kc cell number, rep 2": 1.42e6, "S2R+ cell number, rep 1": 1.44e6, "S2R+ cell number, rep 2": 1.56e6, "outcome": "inactive"}
{"target gene": "CG31534 (retired record)", "amplicon": "DRSC12289", "Kc cell number, rep 1": 1.39e6, "Kc cell number, rep 2": 1.64e6, "S2R+ cell number, rep 1": 1.24e6, "S2R+ cell number, rep 2": 1.41e6, "outcome": "inactive"}
{"target gene": "CG6878", "amplicon": "DRSC10737", "Kc cell number, rep 1": 1.52e6, "Kc cell number, rep 2": 1.54e6, "S2R+ cell number, rep 1": 1.26e6, "S2R+ cell number, rep 2": 1.41e6, "outcome": "inactive"}
{"target gene": "CheB42c (Chemosensory protein B 42c)", "amplicon": "DRSC04972", "Kc cell number, rep 1": 1.54e6, "Kc cell number, rep 2": 1.61e6, "S2R+ cell number, rep 1": 1.28e6, "S2R+ cell number, rep 2": 1.38e6, "outcome": "inactive"}
{"target gene": "CG31082 (retired record)", "amplicon": "DRSC13775", "Kc cell number, rep 1": 1.22e6, "Kc cell number, rep 2": 1.46e6, "S2R+ cell number, rep 1": 1.05e6, "S2R+ cell number, rep 2": 1.10e6, "outcome": "inactive"}
{"target gene": "Ns3 (Nucleostemin 3)", "amplicon": "DRSC18607", "Kc cell number, rep 1": 5.35e5, "S2R+ cell number, rep 1": 8.52e5, "outcome": "inactive"}
{"target gene": "CG2540", "amplicon": "DRSC19856", "Kc cell number, rep 1": 5.72e5, "S2R+ cell number, rep 1": 9.44e5, "outcome": "inactive"}
{"target gene": "CG42288", "amplicon": "DRSC06381", "Kc cell number, rep 1": 1.71e6, "Kc cell number, rep 2": 1.75e6, "S2R+ cell number, rep 1": 1.43e6, "S2R+ cell number, rep 2": 1.61e6, "outcome": "inactive"}
{"target gene": "Nprl3 (Nitrogen permease regulator-like 3)", "amplicon": "DRSC11044", "Kc cell number, rep 1": 1.53e6, "Kc cell number, rep 2": 1.62e6, "S2R+ cell number, rep 1": 1.23e6, "S2R+ cell number, rep 2": 1.23e6, "outcome": "inactive"}
{"target gene": "Osi10b (Osiris 10b)", "amplicon": "DRSC12279", "Kc cell number, rep 1": 1.58e6, "Kc cell number, rep 2": 1.83e6, "S2R+ cell number, rep 1": 1.21e6, "S2R+ cell number, rep 2": 1.30e6, "outcome": "inactive"}
{"target gene": "Yip1d1 (Yip1 domain-containing 1)", "amplicon": "DRSC02166", "Kc cell number, rep 1": 1.83e6, "Kc cell number, rep 2": 1.83e6, "S2R+ cell number, rep 1": 1.37e6, "S2R+ cell number, rep 2": 1.54e6, "outcome": "inactive"}
